Earlier results, collected in paper PMC7856178 (Archives of biochemistry and biophysics, 2020).

Conditions: humans; cited from earlier work

## CN1C(=O)CN=C(c2ccccc2)c2cc(Cl)ccc21 [diazepam]
  Rate of metabolism under the influence of chronic alcohol exposure: increased rate of metabolism
